No constants are given. Whether binding was seen depends on the method and setting. Binding seen in cells or lysates may run through a third protein. Some binding calls cover weakened binding; strength is not graded here.
Target: T1, APN receptor 1 (AdipoR1) (human (endogenous in HUVECs)) (UniProt Q96A54)
T1 sequence: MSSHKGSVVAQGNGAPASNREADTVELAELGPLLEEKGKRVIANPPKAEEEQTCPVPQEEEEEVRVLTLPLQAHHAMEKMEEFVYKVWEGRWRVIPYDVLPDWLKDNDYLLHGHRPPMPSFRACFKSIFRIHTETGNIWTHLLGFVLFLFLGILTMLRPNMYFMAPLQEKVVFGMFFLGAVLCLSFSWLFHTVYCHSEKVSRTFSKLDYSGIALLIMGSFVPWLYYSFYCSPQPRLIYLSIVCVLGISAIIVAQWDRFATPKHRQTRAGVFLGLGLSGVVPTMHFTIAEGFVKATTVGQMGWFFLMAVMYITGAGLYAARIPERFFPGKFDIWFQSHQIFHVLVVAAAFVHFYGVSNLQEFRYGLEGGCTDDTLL
Assay: co-IP; HUVEC lysate (1 mg/sample) precipitated with 2 ug anti-AdipoR1 antibody and protein A + G agarose beads, non-immune rabbit IgG as negative control, western blot of the eluate; cells treated with NIC, HG/HL, NIC + HG/HL, MG132, or siRNA-SOCS3

Sequences of proteins named here, by UniProt entry; tags and fusion partners are left off.
UniProt O14543: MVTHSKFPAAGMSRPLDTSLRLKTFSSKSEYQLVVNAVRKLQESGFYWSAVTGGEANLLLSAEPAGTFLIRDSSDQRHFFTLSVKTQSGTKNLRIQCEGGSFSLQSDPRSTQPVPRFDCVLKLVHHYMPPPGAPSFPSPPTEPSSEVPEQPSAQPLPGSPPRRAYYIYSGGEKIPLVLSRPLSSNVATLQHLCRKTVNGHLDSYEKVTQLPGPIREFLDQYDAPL

suppressor of cytokine signaling 3 (SOCS3) (from UniProt O14543 1-225)
binding: binds
